This note sets out measurements from patent US12644045B2, “Fluorescent compounds and application thereof” (The Hong Kong University of Science and Technology, priority 2020, dated 2026).

Each structure is given as a SMILES string.

This data set relates to high-fat feeding mice liver tissue. Put plainly: Ex vivo fatty liver tissue one-photon and two-photon imaging, penetration depth. Particulars: TBSM 4 μM, 1 h. How it is done: Ex vivo fatty liver tissue imaging. FIG. 21A Two-photon (λex=880 nm) images of and FIG. 21C one-photon (λex=488 nm) images of high-fat feeding mice liver tissue stained with TBSM (4 μM, 1 h) at different penetration depths. λem=550-650 nm FIG. 21B Reconstructed 3D two-photon images. FIG. 21D Reconstructed 3D one-photon images. Scale bar: 40 μm in FIG. 21A and 20 μm in FIG. 21C. Two photon penetration depth: 72 μm, One photon penetration depth: 15 μm.
In comparison with luminogens with one-photon excitation, the excitation wavelength of two-photon luminogens can be extended to a deep red region or even near-infrared region, which can successfully overcome the drawbacks of short wavelength excitation. […] Besides, 3D one-photon and two-photon fluorescent images along different visual directions were reconstructed by combining the images at different depth (FIG. 21A, FIG. 21B, FIG. 21C and FIG. 21D). […] One-photon cell imaging experiments were performed by confocal laser scanning microscopy (CLSM).

In the case of `N#CC(C#N)=C1Sc2c(F)c(-c3ccc(N(c4ccccc4)c4ccccc4)cc3)c3nsnc3c2S1` [TBSM], for the setting “λex=488 nm”, the “One photon penetration depth” value is reported as 15 μm. In addition, the “Two photon penetration depth” value (λex=880 nm) is recorded as 72 μm.
